# Measured values as given in US9133288B2, “Retarder composition” (NUFARM UK LIMITED, priority 2010, dated 2015).
# Columns and labels:
# [1] = Batch test of polymerisation control in refluxing styrene monomer; settings: for Effect (inhibitor, retarder or none): styrene monomer, 120° C., reduced pressure; for Polymer (ppm) @ 30 mins: sample at 30 mins
# [2] = Continuous flow test of polymerisation control, polymer at steady state; settings: styrene monomer, 120° C., reduced pressure, dwell time two hours, steady state after 240 minutes
# [3] = styrene monomer refluxing under reduced pressure at 120° C.
Compound,"Polymer (ppm) @ 180 mins ([1]; styrene monomer refluxing under reduced pressure at 120° C., sample at 180 mins) [ppm]","Effect (inhibitor, retarder or none) [1]","Polymer (ppm) @ 30 mins [1, 3]",Polymer at steady state (ppm) [2] [ppm]
"CCC(C)C1([N+](=O)[O-])C=C([N+](=O)[O-])C=CC1O (centres unmarked) [Control 1, 2,4-dinitro-ortho-sec-butyl-phenol]",6000,Retarder,,
"CC(C)(C)C1=CC(=O)C(C(C)(C)C)=CC1=O [Control 5, 2,5 di-tert-butylbenzoquinone]",,neither inhibitors nor retarders and None,">10,000 ppm",
"ON(Cc1ccccc1)Cc1ccccc1 [Control 6, N,N-dibenzyl hydroxylamine]",,neither inhibitors nor retarders and None,">10,000 ppm",
"CCC(C)C1([N+](=O)[O-])C=C([N+](=O)[O-])C=CC1O (centres unmarked) [Control 7, 2,4-dinitro-ortho-sec-butyl-phenol]",,,,5000
"CCC(C)C1([N+](=O)[O-])C=C([N+](=O)[O-])C=CC1O (centres unmarked) [Control 8, 2,4-dinitro-ortho-sec-butyl-phenol]",,,,1000
